Laboratory results published in patent US11525106B2, “Tetraacetyldiamine and triacetyldiamine derivatives useful as bleach activators” (DOW GLOBAL TECHNOLOGIES LLC, priority 2018, dated 2022).
Some results were stated once for a whole list of compounds, not compound by compound.

Experiment: perhydrolytic degradation in the presence of sodium perborate (10 equiv.), followed by HPLC
Type: physicochemical
Conditions: within 72 h, sodium persalts 10 equiv.
Method: To study the hydrolytic degradation, 1 and 2 were dissolved in Tris buffer (pH 8.0, 0.1 M):acetonitrile (can) mixture (3:1, v/v) at 50 μg/mL. The perhydrolytic degradation was evaluated at similar conditions in the presence of sodium perborate (10 equiv.). Commercially available bleach activator, tetraacetylethylenediamine (TAED), was used as a control. The mixture was incubated at room temperature (20° C.) for 20 days. At different time intervals, an aliquot of the solution was taken out and analyzed by HPLC. The concentration of 1 and 2 was quantified by UV-vis absorption at Δmax=218 nm through standard curve. For the bleaching test, 1, 2, TAED, and other control molecules (20 mg) were treated with commercially available food dyes (100× dilution, 1 mL) and hydrogen peroxide (H2O2, 30%, 1 mL). The mixtures were incubated at room temperature (20° C.) and checked at different time intervals to monitor the bleaching of the dyes.

Compound left after perhydrolysis, < 5%:
CC(=O)N(CCN(C(C)=O)C(C)=O)C(C)=O [TAED, tetraacetylethylenediamine, reference compound]
CC(=O)N(CC(C)N(C(C)=O)C(C)=O)C(C)=O (stereo not drawn) [Compound 1, N,N′-(propane-1,2-diyl)bis(N-acetylacetamide)]
CC(=O)NC(C)CN(C(C)=O)C(C)=O (stereo not drawn) [Compound 2, N-(2-acetamidopropyl)-N-acetylacetamide]
